Data published in publication doi:10.1101/2023.10.30.564812.

Amino acid sequences for entries named in this document (tags omitted).
UniProt P63094: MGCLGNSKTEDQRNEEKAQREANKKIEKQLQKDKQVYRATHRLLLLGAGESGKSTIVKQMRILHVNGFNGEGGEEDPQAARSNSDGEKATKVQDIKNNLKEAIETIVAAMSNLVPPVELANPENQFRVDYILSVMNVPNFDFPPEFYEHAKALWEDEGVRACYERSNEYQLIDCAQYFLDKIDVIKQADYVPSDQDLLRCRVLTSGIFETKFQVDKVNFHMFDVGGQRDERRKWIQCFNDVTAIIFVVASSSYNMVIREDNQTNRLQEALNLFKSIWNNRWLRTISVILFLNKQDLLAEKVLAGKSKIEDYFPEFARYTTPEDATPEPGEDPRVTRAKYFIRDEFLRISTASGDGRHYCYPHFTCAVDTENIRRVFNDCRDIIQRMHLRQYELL
UniProt Q5NBX1: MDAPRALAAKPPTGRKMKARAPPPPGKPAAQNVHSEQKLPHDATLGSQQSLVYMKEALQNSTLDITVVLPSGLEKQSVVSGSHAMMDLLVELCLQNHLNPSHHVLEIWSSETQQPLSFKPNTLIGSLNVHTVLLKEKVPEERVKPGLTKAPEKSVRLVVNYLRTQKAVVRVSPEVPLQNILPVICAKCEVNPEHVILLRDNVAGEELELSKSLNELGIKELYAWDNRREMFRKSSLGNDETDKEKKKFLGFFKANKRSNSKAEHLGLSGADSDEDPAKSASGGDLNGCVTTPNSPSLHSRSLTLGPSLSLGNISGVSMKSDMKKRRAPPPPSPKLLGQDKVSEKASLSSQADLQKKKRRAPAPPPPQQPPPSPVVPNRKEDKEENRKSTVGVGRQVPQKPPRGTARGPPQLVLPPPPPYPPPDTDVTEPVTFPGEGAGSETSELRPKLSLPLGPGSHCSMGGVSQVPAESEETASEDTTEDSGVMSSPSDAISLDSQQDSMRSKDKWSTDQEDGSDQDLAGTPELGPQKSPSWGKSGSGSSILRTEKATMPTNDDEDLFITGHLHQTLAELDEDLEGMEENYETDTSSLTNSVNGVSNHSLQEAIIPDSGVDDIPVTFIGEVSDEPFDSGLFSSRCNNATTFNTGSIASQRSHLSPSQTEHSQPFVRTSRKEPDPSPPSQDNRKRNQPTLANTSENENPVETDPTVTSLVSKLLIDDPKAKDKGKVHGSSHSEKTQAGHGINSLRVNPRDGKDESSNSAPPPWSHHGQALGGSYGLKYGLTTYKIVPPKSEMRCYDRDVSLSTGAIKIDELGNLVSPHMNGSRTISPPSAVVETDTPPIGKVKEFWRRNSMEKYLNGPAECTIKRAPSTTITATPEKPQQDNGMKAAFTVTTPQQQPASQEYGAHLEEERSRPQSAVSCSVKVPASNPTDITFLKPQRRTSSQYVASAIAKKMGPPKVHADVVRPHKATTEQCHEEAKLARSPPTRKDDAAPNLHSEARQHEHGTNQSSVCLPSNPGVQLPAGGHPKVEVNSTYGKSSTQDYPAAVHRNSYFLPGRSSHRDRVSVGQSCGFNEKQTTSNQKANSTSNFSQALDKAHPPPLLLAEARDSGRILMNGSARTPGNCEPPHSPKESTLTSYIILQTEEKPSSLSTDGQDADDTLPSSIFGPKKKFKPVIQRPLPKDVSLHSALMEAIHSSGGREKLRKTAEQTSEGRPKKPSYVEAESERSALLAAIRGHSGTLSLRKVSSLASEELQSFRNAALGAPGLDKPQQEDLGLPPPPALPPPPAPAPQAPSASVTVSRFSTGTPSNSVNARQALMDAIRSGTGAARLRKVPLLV
UniProt P60766: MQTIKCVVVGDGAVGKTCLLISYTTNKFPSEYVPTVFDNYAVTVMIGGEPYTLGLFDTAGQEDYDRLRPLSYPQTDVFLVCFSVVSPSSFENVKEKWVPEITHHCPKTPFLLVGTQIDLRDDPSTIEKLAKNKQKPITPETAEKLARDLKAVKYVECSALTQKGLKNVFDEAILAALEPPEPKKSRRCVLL
UniProt Q80U72: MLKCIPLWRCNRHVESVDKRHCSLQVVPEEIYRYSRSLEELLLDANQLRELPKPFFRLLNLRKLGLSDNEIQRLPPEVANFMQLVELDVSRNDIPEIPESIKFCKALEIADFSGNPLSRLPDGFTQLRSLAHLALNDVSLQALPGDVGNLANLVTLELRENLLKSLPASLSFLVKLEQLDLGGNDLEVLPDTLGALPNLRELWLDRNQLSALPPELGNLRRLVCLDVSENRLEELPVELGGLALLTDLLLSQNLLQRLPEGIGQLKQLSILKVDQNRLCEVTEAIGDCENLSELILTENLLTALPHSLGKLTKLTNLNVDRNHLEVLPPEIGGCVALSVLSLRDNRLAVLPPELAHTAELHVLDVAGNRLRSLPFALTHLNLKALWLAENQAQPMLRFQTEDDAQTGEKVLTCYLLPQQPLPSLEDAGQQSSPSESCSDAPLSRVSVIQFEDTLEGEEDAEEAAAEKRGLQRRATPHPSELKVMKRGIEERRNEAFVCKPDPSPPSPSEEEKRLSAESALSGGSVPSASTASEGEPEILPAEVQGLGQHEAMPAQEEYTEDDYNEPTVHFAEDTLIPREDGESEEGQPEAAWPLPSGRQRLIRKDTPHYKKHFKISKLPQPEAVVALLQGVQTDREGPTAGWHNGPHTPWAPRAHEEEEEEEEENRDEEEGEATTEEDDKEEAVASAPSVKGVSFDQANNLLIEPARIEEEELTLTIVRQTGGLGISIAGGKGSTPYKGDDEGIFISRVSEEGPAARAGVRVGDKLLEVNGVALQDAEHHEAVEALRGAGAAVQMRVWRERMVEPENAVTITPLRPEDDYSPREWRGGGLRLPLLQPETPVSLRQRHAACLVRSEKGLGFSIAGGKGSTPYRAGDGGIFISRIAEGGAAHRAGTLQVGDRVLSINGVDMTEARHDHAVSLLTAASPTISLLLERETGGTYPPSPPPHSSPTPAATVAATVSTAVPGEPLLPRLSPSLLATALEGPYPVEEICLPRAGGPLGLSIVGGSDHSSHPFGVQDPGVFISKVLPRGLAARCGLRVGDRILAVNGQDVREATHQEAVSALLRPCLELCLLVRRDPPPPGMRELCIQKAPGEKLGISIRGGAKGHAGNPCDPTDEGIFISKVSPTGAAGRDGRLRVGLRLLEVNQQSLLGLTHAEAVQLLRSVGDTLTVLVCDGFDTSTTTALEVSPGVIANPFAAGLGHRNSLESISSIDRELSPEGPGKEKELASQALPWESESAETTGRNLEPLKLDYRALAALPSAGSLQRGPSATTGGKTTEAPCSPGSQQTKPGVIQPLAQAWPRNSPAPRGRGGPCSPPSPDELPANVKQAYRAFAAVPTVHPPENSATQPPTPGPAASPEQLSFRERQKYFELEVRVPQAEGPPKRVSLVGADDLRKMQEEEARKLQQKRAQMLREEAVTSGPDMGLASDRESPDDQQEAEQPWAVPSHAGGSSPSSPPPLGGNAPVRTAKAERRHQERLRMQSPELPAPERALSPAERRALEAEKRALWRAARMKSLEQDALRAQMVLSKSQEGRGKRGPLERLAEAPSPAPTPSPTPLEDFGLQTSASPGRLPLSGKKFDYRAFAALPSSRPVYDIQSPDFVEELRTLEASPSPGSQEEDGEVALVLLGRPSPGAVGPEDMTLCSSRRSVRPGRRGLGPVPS
UniProt P05627: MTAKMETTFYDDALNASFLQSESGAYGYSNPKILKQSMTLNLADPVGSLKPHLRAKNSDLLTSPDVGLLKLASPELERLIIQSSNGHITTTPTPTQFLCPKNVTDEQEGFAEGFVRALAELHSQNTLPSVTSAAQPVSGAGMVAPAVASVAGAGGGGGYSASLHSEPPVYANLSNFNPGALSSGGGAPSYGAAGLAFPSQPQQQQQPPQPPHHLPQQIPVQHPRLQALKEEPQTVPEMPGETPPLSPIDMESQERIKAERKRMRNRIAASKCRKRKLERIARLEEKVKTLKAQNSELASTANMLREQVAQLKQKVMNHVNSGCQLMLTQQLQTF
UniProt P52019: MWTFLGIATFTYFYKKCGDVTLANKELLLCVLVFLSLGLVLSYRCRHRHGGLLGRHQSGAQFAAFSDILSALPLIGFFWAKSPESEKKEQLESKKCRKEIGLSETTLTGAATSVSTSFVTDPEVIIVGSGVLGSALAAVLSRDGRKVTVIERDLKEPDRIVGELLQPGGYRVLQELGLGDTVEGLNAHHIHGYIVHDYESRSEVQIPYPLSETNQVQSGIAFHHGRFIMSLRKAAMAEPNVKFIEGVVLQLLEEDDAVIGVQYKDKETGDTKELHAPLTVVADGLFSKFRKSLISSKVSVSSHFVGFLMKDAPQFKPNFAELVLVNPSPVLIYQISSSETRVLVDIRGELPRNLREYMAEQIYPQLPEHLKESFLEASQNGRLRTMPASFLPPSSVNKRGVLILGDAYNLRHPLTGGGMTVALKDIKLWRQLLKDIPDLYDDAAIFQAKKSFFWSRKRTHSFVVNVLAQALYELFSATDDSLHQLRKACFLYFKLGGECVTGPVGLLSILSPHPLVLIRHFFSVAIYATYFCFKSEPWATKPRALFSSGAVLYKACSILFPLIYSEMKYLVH
UniProt Q80XP8: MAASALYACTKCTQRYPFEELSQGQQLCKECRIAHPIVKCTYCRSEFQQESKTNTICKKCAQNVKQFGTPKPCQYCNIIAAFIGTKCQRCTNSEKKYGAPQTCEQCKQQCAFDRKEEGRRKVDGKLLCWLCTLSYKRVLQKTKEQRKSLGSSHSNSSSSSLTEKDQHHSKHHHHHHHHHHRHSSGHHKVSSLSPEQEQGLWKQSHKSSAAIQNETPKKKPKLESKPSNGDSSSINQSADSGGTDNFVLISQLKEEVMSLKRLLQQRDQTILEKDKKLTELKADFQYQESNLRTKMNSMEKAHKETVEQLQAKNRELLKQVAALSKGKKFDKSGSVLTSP
UniProt Q9QUI0: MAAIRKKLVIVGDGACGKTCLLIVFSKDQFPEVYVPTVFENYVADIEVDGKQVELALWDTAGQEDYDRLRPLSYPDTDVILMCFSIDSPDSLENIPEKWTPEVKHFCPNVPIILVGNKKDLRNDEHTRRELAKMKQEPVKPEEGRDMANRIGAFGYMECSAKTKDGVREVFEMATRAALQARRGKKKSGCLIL
UniProt Q3UCQ1: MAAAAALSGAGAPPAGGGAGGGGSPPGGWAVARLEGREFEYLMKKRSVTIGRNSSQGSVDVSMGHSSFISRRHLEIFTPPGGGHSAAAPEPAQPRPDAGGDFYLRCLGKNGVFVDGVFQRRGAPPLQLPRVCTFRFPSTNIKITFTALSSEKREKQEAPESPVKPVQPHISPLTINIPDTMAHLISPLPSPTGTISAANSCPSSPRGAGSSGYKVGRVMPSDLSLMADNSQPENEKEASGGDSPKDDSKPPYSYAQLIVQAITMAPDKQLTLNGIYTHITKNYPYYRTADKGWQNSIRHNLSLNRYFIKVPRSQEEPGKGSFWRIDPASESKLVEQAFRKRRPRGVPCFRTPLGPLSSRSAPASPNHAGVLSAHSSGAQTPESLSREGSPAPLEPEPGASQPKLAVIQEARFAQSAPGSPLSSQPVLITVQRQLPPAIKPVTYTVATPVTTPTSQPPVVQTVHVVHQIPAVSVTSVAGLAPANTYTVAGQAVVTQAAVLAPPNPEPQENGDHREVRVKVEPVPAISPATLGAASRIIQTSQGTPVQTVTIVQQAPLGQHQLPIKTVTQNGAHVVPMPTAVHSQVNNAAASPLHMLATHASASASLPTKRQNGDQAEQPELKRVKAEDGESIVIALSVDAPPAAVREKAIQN

T1: FLAG-C18ORF25-WT (mouse) (UniProt Q8BH50)
T1 sequence: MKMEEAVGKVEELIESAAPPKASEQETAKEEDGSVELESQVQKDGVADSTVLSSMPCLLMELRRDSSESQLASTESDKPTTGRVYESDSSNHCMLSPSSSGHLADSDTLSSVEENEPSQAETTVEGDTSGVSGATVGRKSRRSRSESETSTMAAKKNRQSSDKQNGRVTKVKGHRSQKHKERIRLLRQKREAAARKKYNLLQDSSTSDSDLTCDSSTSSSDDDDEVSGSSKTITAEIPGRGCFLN

B1: PDLIM5 (protein, UniProt Q8CI51-1 1-591)
chain: MSNYSVSLVGPAPWGFRLQGGKDFNMPLTISSLKDGGKASQAHVRIGDVVLSIDGISAQGMTHLEAQNKIKACTGSLNMTLQRASAAAKSEPVSVQKGEPKEVVKPVPITSPAVSKVTSTTNMAYNKAPRPFGSVSSPKVTSIPSPSSAFTPAHAATSSHASPTPVAAATPLHLSASGLHVSANLSADQCSSPPNTGKPAVNVPRQPTVTSVCSESAQELAEGQRRGSQGDIKQQNGPPRKHIVERNTEFYHIPTHSDASKKRLIEDTEDWRPRTGTTQSRSFRILAQITGTEHLTESENDNTKKANSTQEPSQQPASSGASPLSASEGPESPGSSRPSVAGLRSAAAFKPVGSTSVKSPSWQRPNQAAPSTGRISNNARSSGTGASVGPPQPSDQDTLVQRAEHIPAGKRTPMCAHCNQVIRGPFLVALGKSWHPEEFNCAHCKNTMAYIGFVEEKGALYCELCYEKFFAPECGRCQRKILGEVINALKQTWHVSCFVCVACGKPIRNNVFHLEDGEPYCETDYYALFGTICRGCEFPIEAGDMFLEALGYTWHDTCFVCSVCCESLEGQTFFSKKDKPLCKKHAHSVNF
B2: RRAS2 (protein, UniProt P62071 1-204)
chain: MAAAGWRDGSGQEKYRLVVVGGGGVGKSALTIQFIQSYFVTDYDPTIEDSYTKQCVIDDRAARLDILDTAGQEEFGAMREQYMRTGEGFLLVFSVTDRGSFEEIYKFQRQILRVKDRDEFPMILIGNKADLDHQRQVTQEEGQQLARQLKVTYMEASAKIRMNVDQAFHELVRVIRKFQEQECPPSPEPTRKEKDKKGCHCVIF
B3: MYL2 (protein, UniProt P51667 1-166)
chain: MAPKKAKKRIEGGSSNVFSMFEQTQIQEFKEAFTIMDQNRDGFIDKNDLRDTFAALGRVNVKNEEIDEMIKEAPGPINFTVFLTMFGEKLKGADPEETILNAFKVFDPEGKGSLKADYVREMLTTQAERFSKEEIDQMFAAFPPDVTGNLDYKNLVHIITHGEEKD
B4: FHL2 (protein, UniProt O70433 1-279)
chain: MTERFDCHHCNESLYGKKYILKEENPHCVACFEELYANTCEECGTPIGCDCKDLSYKDRHWHEGCFHCSRCGSSLVDKPFAAKEEQLLCTDCYSNEYSSKCQECKKTIMPGTRKMEYKGSSWHETCFTCQRCQQPIGTKSFIPKENQNFCVPCYEKQYALQCVQCKKPITTGGVTYREQPWHKECFVCTACKKQLSGQRFTARDEFPYCLTCFCDLYAKKCAGCTNPISGLGGTKYISFEERQWHNDCFNCKKCSLSLVGRGFLTERDDILCPDCGKDI
B5: RALB (protein, UniProt Q9JIW9 1-206)
chain: MAANKGKSQGSLVLHKVIMVGSGGVGKSALTLQFMYDEFVEDYEPTKADSYRKKVVLDGEEVQIDILDTAGQEDYAAIRDNYFRSGEGFLLVFSITEHESFTATAEFREQILRVKSEEDKIPLLVVGNKSDLEERRQVPVDEARGKAEEWGVQYVETSAKTRANVDKVFFDLMREIRAKKMSENKDKNGRKSSKSKKSFKERCCLL
B6: PIP4K2B (protein, UniProt Q80XI4 1-416)
chain: MSSNCTSTTAVAVAPLSASKTKTKKKHFVCQKVKLFRASEPILSVLMWGVNHTINELSNVPVPVMLMPDDFKAYSKIKVDNHLFNKENLPSRFKFKEYCPMVFRNLRERFGIDDQDYQNSVTRSAPINSDSQGRCGTRFLTTYDRRFVIKTVSSEDVAEMHNILKKYHQFIVECHGNTLLPQFLGMYRLTVDGVETYMVVTRNVFSHRLTVHRKYDLKGSTVAREASDKEKAKDLPTFKDNDFLNEGQKLHVGEESKKNFLEKLKRDVEFLAQLKIMDYSLLVGIHDVDRAEQEEMEVEERAEEEECENDGVGGSLLCSYGTPPDSPGNLLSFPRFFGPGEFDPSVDVYAMKSHESAPKKEVYFMAIIDILTPYDAKKKAAHAAKTVKHGAGAEISTVNPEQYSKRFNEFMSNILT
B7: RALA (protein, UniProt P63321 1-206)
chain: MAANKPKGQNSLALHKVIMVGSGGVGKSALTLQFMYDEFVEDYEPTKADSYRKKVVLDGEEVQIDILDTAGQEDYAAIRDNYFRSGEGFLCVFSITEMESFAATADFREQILRVKEDENVPFLLVGNKSDLEDKRQVSVEEAKNRADQWNVNYVETSAKTRANVDKVFFDLMREIRARKMEDSKEKNGKKKRKSLAKRIRERCCIL
B8: JUND (protein, UniProt P15066 1-341)
chain: METPFYGEEALSGLAAGASSVAGATGAPGGGGFAPPGRAFPGAPPTSSMLKKDALTLSLAEQGAAGLKPGSATAPSALRPDGAPDGLLASPDLGLLKLASPELERLIIQSNGLVTTTPTSTQFLYPKVAASEEQEFAEGFVKALEDLHKQSQLGAATAATSGAPAPPAPADLAATPGATETPVYANLSSFAGGAGPPGGAATVAFAAEPVPFPPPPGALGPPPPPHPPRLAALKDEPQTVPDVPSFGDSPPLSPIDMDTQERIKAERKRLRNRIAASKCRKRKLERISRLEEKVKTLKSQNTELASTASLLREQVAQLKQKVLSHVNSGCQLLPQHQVPAY
B9: PRPF31 (protein, UniProt Q8CCF0 1-499)
chain: MSLADELLADLEEAAEEEEGGSYGEEEEEPAIEDVQEETQLDLSGDSVKSIAKLWDSKMFAEIMMKIEEYISKQANVSEVMGPVEAAPEYRVIVDANNLTVEIENELNIIHKFIRDKYSKRFPELESLVPNALDYIRTVKELGNSLDKCKNNENLQQILTNATIMVVSVTASTTQGQQLSDEELERLEEACDMALELNASKHRIYEYVESRMSFIAPNLSIIIGASTAAKIMGVAGGLTNLSKMPACNIMLLGAQRKTLSGFSSTSVLPHTGYIYHSDIVQSLPPDLRRKAARLVAAKCTLAARVDSFHESTEGKVGYELKDEIERKFDKWQEPPPVKQVKPLPAPLDGQRKKRGGRRYRKMKERLGLTEIRKQANRMSFGEIEEDAYQEDLGFSLGHLGKSGSGRVRQTQVNEATKARISKTLQRTLQKQSVVYGGKSTIRDRSSGTASSVAFTPLQGLEIVNPQAAEKKVAEANQKYFSSMAEFLKVKGEKSGTMST

target: T1, FLAG-C18ORF25-WT (mouse); test: affinity purification with mass spectrometry

binding	Molecule
binds	GNAS (from UniProt P63094 1-394)
binds	Rab4 (mouse (endogenous in C2C12))
no binding	COBL (from UniProt Q5NBX1 1-1337)
binds	CDC42 (from UniProt P60766 1-191)
binds	Rab5 (mouse (endogenous in C2C12))
binds	SCRIB (from UniProt Q80U72 1-1665)
binds	JUN (from UniProt P05627 1-334)
binds	SQLE (from UniProt P52019 1-572) (enzyme)
binds	FAM76B (from UniProt Q80XP8 1-339)
binds	RHOA (from UniProt Q9QUI0 1-193)
binds	FOXK2 (from UniProt Q3UCQ1 1-651)
binds	GPATCH2 (C14ORF118) (mouse (endogenous in C2C12))
binds	B1
binds	B2
binds	B3
binds	B4
binds	B5
binds	B6
binds	B7
binds	B8
binds	B9

These are yes or no findings as the source states them, for the method shown. Binding seen in cells or lysates may run through a third protein. Here binding means that the protein was enriched with, or labelled near, the bait; the list need not be complete. No binding means not detected with the bait. Tags and fused reporters may be left off the sequences shown.
